Paper PMC4480697
These are yes or no findings as the source states them, for the method shown. Binding seen in cells or lysates may run through a third protein. Some entries that bind do so weakly or less than the wild type. For some assays here: Tags and fused reporters may be left off the sequences shown.

Sequences of proteins named here, by UniProt entry; tags and fusion partners are left off.
UniProt P98170: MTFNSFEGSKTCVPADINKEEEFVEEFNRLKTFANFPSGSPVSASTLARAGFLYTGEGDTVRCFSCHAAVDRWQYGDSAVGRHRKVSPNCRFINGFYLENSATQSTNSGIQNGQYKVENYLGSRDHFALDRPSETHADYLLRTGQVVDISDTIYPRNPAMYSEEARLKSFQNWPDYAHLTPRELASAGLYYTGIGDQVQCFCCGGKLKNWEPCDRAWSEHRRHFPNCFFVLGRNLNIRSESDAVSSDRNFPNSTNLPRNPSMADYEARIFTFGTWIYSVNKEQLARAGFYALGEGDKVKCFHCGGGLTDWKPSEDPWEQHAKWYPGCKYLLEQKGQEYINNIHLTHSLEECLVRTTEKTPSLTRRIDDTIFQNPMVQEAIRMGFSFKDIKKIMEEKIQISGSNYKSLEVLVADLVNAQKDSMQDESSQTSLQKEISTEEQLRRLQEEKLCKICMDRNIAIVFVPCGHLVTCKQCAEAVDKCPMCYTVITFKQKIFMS

Experiments:
[1] = target: T1, TRIP-Br3 (Transcriptional Regulator Interacting with the PHD-Bromo-domain 3), endogenous in MCF7 cells (human (endogenous in MCF7)) (UniProt Q9BXL8); assay: co-IP; endogenous proteins, MCF7 cells in complete medium harvested at 90% confluence; IP with anti-TRIP-Br3 or anti-XIAP antibody, protein A/G agarose, 4°C; lysis 150 mM NaCl, 25 mM Tris-HCl pH 8.0, 1 mM EDTA, 10% glycerol, NP-40; wash 900 mM NaCl, 0.5% NP-40; Western blot
T1 sequence: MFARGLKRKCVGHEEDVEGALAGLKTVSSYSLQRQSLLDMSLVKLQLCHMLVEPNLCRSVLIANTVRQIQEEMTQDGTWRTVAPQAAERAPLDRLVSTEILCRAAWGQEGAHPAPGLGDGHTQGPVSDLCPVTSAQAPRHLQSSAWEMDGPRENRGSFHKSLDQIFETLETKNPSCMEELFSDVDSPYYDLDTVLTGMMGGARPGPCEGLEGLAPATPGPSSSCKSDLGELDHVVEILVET

[2] = target: T2, Flag-tagged TRIP-Br3 expressed from pEF/TRIP-Br3 (UniProt Q9BXL8); assay: co-IP; competition: HEK293T cells transfected with pEF/TRIP-Br3 (1 μg/ml) without or with pEF/TRIP-Br1 (1 or 2 μg/ml), complete medium 48 h; IP with anti-TRIP-Br3 or anti-XIAP antibody; Western blot
T2 sequence: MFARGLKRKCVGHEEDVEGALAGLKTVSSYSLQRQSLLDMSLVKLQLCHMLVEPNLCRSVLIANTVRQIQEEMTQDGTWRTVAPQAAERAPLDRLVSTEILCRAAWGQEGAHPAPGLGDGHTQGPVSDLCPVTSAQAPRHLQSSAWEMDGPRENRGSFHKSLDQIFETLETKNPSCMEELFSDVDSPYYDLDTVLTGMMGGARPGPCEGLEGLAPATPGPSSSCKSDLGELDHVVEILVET

[3] = target: T2, Flag-tagged TRIP-Br3 expressed from pEF/TRIP-Br3; assay: co-IP; HEK293T cells transfected with pEF/TRIP-Br3; lysate immunoprecipitated, protein A/G agarose, 4°C; wash 900 mM NaCl, 0.5% NP-40; Western blot
[4] = target: T2, Flag-tagged TRIP-Br3 expressed from pEF/TRIP-Br3; assay: co-IP; HEK293T cells co-transfected with pEF/TRIP-Br3 and flag-tagged XIAP, XIAP-ΔBIR2 or XIAP-ΔRING (control vector pCMV); IP with anti-TRIP-Br3 antibody; Western blot
[5] = target: XIAP (X-linked inhibitor of apoptosis protein), endogenous in HEK293T cells (human (endogenous in HEK293T)) (UniProt P98170); assay: co-IP; competition: HEK293T cells transfected with pEF/TRIP-Br3 (1 μg/ml) without or with pEF/TRIP-Br1 (1 or 2 μg/ml), complete medium 48 h; IP with anti-TRIP-Br3 or anti-XIAP antibody; Western blot

Q: How did the binding [1] turn out when “XIAP (X-linked inhibitor of apoptosis protein), endogenous in MCF7 cells (from UniProt P98170 1-497)” was run?
A: binds

Q: Which binding [2] does the source give for “XIAP (X-linked inhibitor of apoptosis protein), endogenous in HEK293T cells (from UniProt P98170 1-497)” here?
A: binds

Q: And the binding [3]?
A: binds

Q: How did the binding [4] turn out when “flag-tagged full length XIAP (from UniProt P98170 1-497)” was run?
A: binds

B1: Flag-tagged TRIP-Br1 expressed from pEF/TRIP-Br1 (protein, UniProt Q9UHV2 1-236)
chain: MLSKGLKRKREEEEEKEPLAVDSWWLDPGHTAVAQAPPAVASSSLFDLSVLKLHHSLQQSEPDLRHLVLVVNTLRRIQASMAPAAALPPVPSPPAAPSVADNLLASSDAALSASMASLLEDLSHIEGLSQAPQPLADEGPPGRSIGGAAPSLGALDLLGPATGCLLDDGLEGLFEDIDTSMYDNELWAPASEGLKPGPEDGPGKEEAPELDEAELDYLMDVLVGTQALERPPGPGR
Q: B1 was tested. Which binding [5] did it give?
A: binds
